Substitutions are numbered along the chain they refer to. These are yes or no findings as the source states them, for the method shown. Some entries that bind do so weakly or less than the wild type.

By UniProt entry, the sequences of proteins in these tests, tags left out. Where a name states a change or a piece, a line headed by the entry shows the natural chain unless it says otherwise.
UniProt P00742: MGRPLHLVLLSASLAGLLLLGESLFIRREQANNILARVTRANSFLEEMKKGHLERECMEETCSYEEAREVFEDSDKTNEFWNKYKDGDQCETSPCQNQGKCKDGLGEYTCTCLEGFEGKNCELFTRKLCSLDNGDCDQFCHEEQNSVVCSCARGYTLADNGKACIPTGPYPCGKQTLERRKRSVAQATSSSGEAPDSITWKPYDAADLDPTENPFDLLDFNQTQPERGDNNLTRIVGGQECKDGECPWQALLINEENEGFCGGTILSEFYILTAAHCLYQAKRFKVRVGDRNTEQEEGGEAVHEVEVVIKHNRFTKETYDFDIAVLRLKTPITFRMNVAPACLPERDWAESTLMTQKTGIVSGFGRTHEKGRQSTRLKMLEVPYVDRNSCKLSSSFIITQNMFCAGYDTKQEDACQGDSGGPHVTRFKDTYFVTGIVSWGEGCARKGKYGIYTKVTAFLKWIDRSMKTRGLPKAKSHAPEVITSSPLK

In this test the target is human factor X (human, UniProt P00742 41-179; P00742 183-488). The test is described as follows: SPR as in Example 10, IgG captured, FX analyte.

B1: TINA-0616.0128 (antibody, V domains shown)
VH: QVQLIQSGAEVKKPGASVKVSCKASRYSFTSYYMHWVRQAPGQGLEWMGIINPKSGSTSYAQKFQGRVTMTRDTSTSTVYMELSSLRSEDTAVYYCARDGYGSSSRCIQLWGQGTLVTVSS
VL: SYVLTQPPSVSVAPGETARITCGGDNIGRKSVYWYQQKSGQAPVLVIYYDSDRPSGIPERFSGSNSGNTATLTISRVEAGDEADYYCQVWDGSSDHWVFGGGTKLTVL
With B1, the binding entry is “binds”.

B2: TINA-0638.0128 (antibody, V domains shown)
VH: B1 VH with I108L, Q109M
VL: B1 VL
Take B2: the binding result is recorded as “binds”.

Source of the values: patent US20200199250A1 (KYMAB, published 2020).
